No constants are given. Whether binding was seen depends on the method and setting. For some of these results: Binding seen in cells or lysates may run through a third protein. Some results given as binding are weak or reduced against the parent protein; the word gives no strength. Sequences can lack the tags named with a protein.
What was measured:
[1] = target: T1, full length hemagglutinin-tagged mouse Robo-4 receptor (Robo-4-HA) (mouse) (UniProt Q8C310); assay: co-immunoprecipitation with anti-HA antibodies, immunoblot (FIG. 5 legend)
T1 sequence: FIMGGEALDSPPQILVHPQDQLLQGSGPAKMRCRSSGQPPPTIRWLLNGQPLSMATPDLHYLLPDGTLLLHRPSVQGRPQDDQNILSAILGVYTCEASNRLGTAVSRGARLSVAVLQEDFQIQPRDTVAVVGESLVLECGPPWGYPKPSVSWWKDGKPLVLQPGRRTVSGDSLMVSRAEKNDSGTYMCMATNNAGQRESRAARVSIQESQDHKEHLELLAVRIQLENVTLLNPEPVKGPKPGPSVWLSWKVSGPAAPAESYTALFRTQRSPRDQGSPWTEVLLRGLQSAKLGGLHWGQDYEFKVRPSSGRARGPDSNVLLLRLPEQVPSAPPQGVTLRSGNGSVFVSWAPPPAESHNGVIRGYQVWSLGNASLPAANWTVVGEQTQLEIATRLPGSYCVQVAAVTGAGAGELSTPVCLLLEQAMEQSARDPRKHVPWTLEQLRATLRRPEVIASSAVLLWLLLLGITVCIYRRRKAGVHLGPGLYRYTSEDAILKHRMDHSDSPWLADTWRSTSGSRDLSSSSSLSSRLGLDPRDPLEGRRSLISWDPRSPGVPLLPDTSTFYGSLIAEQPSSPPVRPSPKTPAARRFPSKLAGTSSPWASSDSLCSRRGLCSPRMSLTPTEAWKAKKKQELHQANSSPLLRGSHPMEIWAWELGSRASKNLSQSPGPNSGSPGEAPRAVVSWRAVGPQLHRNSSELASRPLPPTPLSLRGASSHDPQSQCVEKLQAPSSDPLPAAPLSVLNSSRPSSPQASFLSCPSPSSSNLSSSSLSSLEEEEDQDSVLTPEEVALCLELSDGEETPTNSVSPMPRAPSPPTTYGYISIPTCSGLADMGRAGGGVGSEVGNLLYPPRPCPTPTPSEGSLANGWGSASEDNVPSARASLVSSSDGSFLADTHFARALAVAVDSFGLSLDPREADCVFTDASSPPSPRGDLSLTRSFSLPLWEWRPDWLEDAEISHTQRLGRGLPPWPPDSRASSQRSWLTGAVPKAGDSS

[2] = target: T1, full length hemagglutinin-tagged mouse Robo-4 receptor (Robo-4-HA) (mouse); assay: saturation of binding; method not described
[3] = target: T1, full length hemagglutinin-tagged mouse Robo-4 receptor (Robo-4-HA) (mouse); assay: co-immunoprecipitation with anti-HA antibodies, immunoblot
[4] = target: T1, full length hemagglutinin-tagged mouse Robo-4 receptor (Robo-4-HA) (mouse); assay: indirect immunofluorescence of Slit-myc CM on Robo-4-HEK cells (murine anti-myc antibody, then Alexa 594 anti-mouse antibody)

binding [1]: binds
binding [2]: binds
binding [3]: binds
binding [4]: binds
B1: Human Slit2 ligand tagged with the Myc Epitope (ligand, UniProt O94813 31-1529, looked up, not shown: small tags and cut ends)
chain: QCSCSGSTVDCHGLALRSVPRNIPRNTERLDLNGNNITRITKTDFAGLRHLRVLQLMENKISTIERGAFQDLKELERLRLNRNHLQLFPELLFLGTAKLYRLDLSENQIQAIPRKAFRGAVDIKNLQLDYNQISCIEDGAFRALRDLEVLTLNNNNITRLSVASFNHMPKLRTFRLHSNNLYCDCHLAWLSDWLRQRPRVGLYTQCMGPSHLRGHNVAEVQKREFVCSGHQSFMAPSCSVLHCPAACTCSNNIVDCRGKGLTEIPTNLPETITEIRLEQNTIKVIPPGAFSPYKKLRRIDLSNNQISELAPDAFQGLRSLNSLVLYGNKITELPKSLFEGLFSLQLLLLNANKINCLRVDAFQDLHNLNLLSLYDNKLQTIAKGTFSPLRAIQTMHLAQNPFICDCHLKWLADYLHTNPIETSGARCTSPRRLANKRIGQIKSKKFRCSAKEQYFIPGTEDYRSKLSGDCFADLACPEKCRCEGTTVDCSNQKLNKIPEHIPQYTAELRLNNNEFTVLEATGIFKKLPQLRKINFSNNKITDIEEGAFEGASGVNEILLTSNRLENVQHKMFKGLESLKTLMLRSNRITCVGNDSFIGLSSVRLLSLYDNQITTVAPGAFDTLHSLSTLNLLANPFNCNCYLAWLGEWLRKKRIVTGNPRCQKPYFLKEIPIQDVAIQDFTCDDGNDDNSCSPLSRCPTECTCLDTVVRCSNKGLKVLPKGIPRDVTELYLDGNQFTLVPKELSNYKHLTLIDLSNNRISTLSNQSFSNMTQLLTLILSYNRLRCIPPRTFDGLKSLRLLSLHGNDISVVPEGAFNDLSALSHLAIGANPLYCDCNMQWLSDWVKSEYKEPGIARCAGPGEMADKLLLTTPSKKFTCQGPVDVNILAKCNPCLSNPCKNDGTCNSDPVDFYRCTCPYGFKGQDCDVPIHACISNPCKHGGTCHLKEGEEDGFWCICADGFEGENCEVNVDDCEDNDCENNSTCVDGINNYTCLCPPEYTGELCEEKLDFCAQDLNPCQHDSKCILTPKGFKCDCTPGYVGEHCDIDFDDCQDNKCKNGAHCTDAVNGYTCICPEGYSGLFCEFSPPMVLPRTSPCDNFDCQNGAQCIVRINEPICQCLPGYQGEKCEKLVSVNFINKESYLQIPSAKVRPQTNITLQIATDEDSGILLYKGDKDHIAVELYRGRVRASYDTGSHPASAIYSVETINDGNFHIVELLALDQSLSLSVDGGNPKIITNLSKQSTLNFDSPLYVGGMPGKSNVASLRQAPGQNGTSFHGCIRNLYINSELQDFQKVPMQTGILPGCEPCHKKVCAHGTCQPSSQAGFTCECQEGWMGPLCDQRTNDPCLGNKCVHGTCLPINAFSYSCKCLEGHGGVLCDEEEDLFNPCQAIKCKHGKCRLSGLGQPYCECSSGYTGDSCDREISCRGERIRDYYQKQQGYAACQTTKKVSRLECRGGCAGGQCCGPLRSKRRKYSFECTDGSSFVDEVEKVVKCGCTRCVS
